Reference: PubChem BioAssay AID504467 (National Center for Advancing Translational Sciences (NCATS), 2011)
Screen size: about 330,000 compounds; about 7,700 (2.3%) were called active. This list was built around the results that the source calls inconclusive (neither active nor inactive); the mix of calls is not that of the screen. Calls come from the whole dose curve; as a rule, active = well fitted inhibition curve with a large enough effect; inconclusive = small, poorly fitted or top-dose-only effect, or effect the other way; inactive = flat fitted curve, though single readings scatter. A potency beside an inconclusive call is a rough fit, not a confirmed value.

Assay: qHTS screen for small molecules that inhibit ELG1-dependent DNA repair in human embryonic kidney (HEK293T) cells expressing luciferase-tagged ELG1; note: nearly all actives have a fitted effect of over 55% in size
Settings: HEK293T ELG1-luciferase reporter, luminescence, 16 h, DNA damage induced by 5-fluorouridine; series mostly up to 46.1 µM
How it was run: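 5-Fluorouridine DNA damage + compound/DMSO, 2,000 cells/well, 16 h, 37 °C/5% CO2. ONE-Glo, 30 min RT, luminescence. Readout = decrease in reporter signal.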
Potency is the fitted concentration of half-maximal effect.

With `CCOc1cc(/C=N/Nc2nc(-c3cccc(S(=O)(=O)N4CCCC4)c3)cs2)ccc1O` as the compound, how does the Potency read?
Its Potency is active: 20.6 µM.

For `Cc1ccc(NC(=O)c2cc(-c3ccco3)nc3ccccc23)cc1S(=O)(=O)N1CCOCC1`, which Potency is on record?
The Potency was inconclusive: 14.6 µM [inhibitor, partial curve].

With `CC(=O)NCC(=O)NC1CCCc2c1cnn2-c1ccccc1F` (centres undefined) as the compound, how does the Potency read?
Its Potency is inconclusive: 35.5 µM [activator, single point].

With `COc1cc(SC)ccc1C(=O)Nc1ccc(OCC(=O)N2CCOCC2)cc1` as the compound, how does the Potency read?
The Potency was inconclusive: 2.59 µM [activator, full curve].

Which Potency does the source give for `Cc1ccccc1C(=O)N1CCN(c2ccc(NC(=S)NC(=O)c3ccco3)cc2)CC1` here?
Its Potency is inconclusive: 10.3 µM [inhibitor, partial curve, poor fit].

With `Cc1ccc(NC(=O)c2cc(=O)c3ccccc3o2)cc1S(=O)(=O)N1CCCCC1` as the compound, how does the Potency read?
The Potency was active: 16.4 µM.

For `COC(=O)c1ccccc1NC(=O)C1CCCN(S(=O)(=O)c2ccc(F)cc2)C1` (centres undefined), which Potency is on record?
Its Potency is inconclusive: 20.6 µM [inhibitor, single point].

For `COC(=O)C1Cc2c([nH]c3ccccc23)C(C(C)C)N1` (centres undefined), which Potency is on record?
Its Potency is inconclusive: 0.116 µM [activator, single point].

For `CCCN1CCN(CC(=O)Nc2cc(OCC)ccc2OCC)CC1`, which Potency is on record?
The Potency was “inactive”.

For `Cc1nc(-c2ccccc2)sc1C1(C)CC(c2ccc(OC(F)(F)F)cc2)=NO1` (centres undefined), which Potency is on record?
The Potency was inconclusive: 29.1 µM [activator, partial curve, poor fit].

With `C=CCn1c(SCc2nc3scc(-c4ccccc4)c3c(=O)[nH]2)nnc1-c1ccccc1F` as the compound, how does the Potency read?
Its Potency is inconclusive: 29.1 µM [inhibitor, single point].

With `Nc1nnc(CC(=O)N/N=C/c2cccc(OCCOc3ccccc3)c2)s1` as the compound, how does the Potency read?
Its Potency is inconclusive: 1.03 µM [activator, partial curve, poor fit].

With `CN(c1ccccc1)S(=O)(=O)c1ccc(Cl)c(C(=O)NCCc2c[nH]c3ccccc23)c1` as the compound, how does the Potency read?
The Potency was active: 18.4 µM.

Which Potency does the source give for `Cc1ccc(S(=O)(=O)N2CCOC23CCN(C(=O)c2ccccc2Br)CC3)cc1` here?
The Potency was “inactive”.

Which Potency does the source give for `N#CCSc1nc2cc(C(=O)N3CCC(C(N)=O)CC3)ccc2c2nc3ccccc3n12` here?
Its Potency is active: 20.6 µM.

For `Cc1cc(C)n(CC(O)Cn2ccc3ccccc32)n1` (centres undefined), which Potency is on record?
Its Potency is inconclusive: 29.1 µM [activator, single point].

Which Potency does the source give for `CCc1cccc2c1NC(=O)C21OCCO1` here?
The Potency was inconclusive: 16.4 µM [activator, single point].

Which Potency does the source give for `COc1ccc(CNC(C)C23CC4CC(CC(C4)C2)C3)c(OC)c1OC` (centres undefined) here?
Its Potency is inconclusive: 29.1 µM [inhibitor, single point].

For `Cc1ccc(NC(=O)CSc2nc(CSc3ccc(C)cc3)cc(=O)[nH]2)cc1`, which Potency is on record?
Its Potency is inconclusive: 6.51 µM [inhibitor, single point].

For `Cn1c(=O)c2[nH]c(Nc3ccccc3)nc2n(C)c1=O`, which Potency is on record?
The Potency was inconclusive: 13 µM [inhibitor, partial curve, poor fit].

With `CN(Cc1ccccc1)C(=O)COc1ccccc1Cl` as the compound, how does the Potency read?
Its Potency is “inactive”.

For `CCC(C)N(C)C(=O)c1cc2ccccc2c(-c2ccccc2Cl)n1` (centres undefined), which Potency is on record?
The Potency was “inactive”.

With `CC(OC(=O)c1ccc(C#N)cc1)C(=O)Nc1ccc(Cl)cn1` (centres undefined) as the compound, how does the Potency read?
Its Potency is “inactive”.

Which Potency does the source give for `CN(C(=O)CSc1ncccc1C(=O)O)c1ccccc1` here?
Its Potency is inconclusive: 0.206 µM [inhibitor, single point].

With `Cc1ccc(-c2nc3ccccc3[nH]2)cc1NC(=O)c1sc2cc(Cl)ccc2c1Cl` as the compound, how does the Potency read?
The Potency was inconclusive: 25.9 µM [activator, partial curve, poor fit].

Which Potency does the source give for `Cc1cc(-n2nc(C)cc2C)n2nc(C)c(-c3ccc(Cl)cc3)c2n1` here?
Its Potency is inconclusive: 29.1 µM [activator, partial curve, poor fit].

For `CC1=NNC(=O)C1C(c1ccc(Cl)cc1)C(C#N)C#N` (centres undefined), which Potency is on record?
The Potency was inconclusive: 18.3 µM [activator, partial curve, poor fit].

For `NC(=O)c1ccc(NC(=O)COC(=O)c2ccc3ccccc3n2)cc1`, which Potency is on record?
The Potency was inconclusive: 20.6 µM [activator, single point].

Which Potency does the source give for `S=c1[nH]c2ccccc2n2c(=S)[nH]nc12` here?
The Potency was “inactive”.

Which Potency does the source give for `CCOC(=O)N1CCC(N2Cc3cccc(C(=O)Nc4ccc(S(=O)(=O)N(CC)CC)cc4)c3C2=O)CC1` here?
The Potency was inconclusive: 4.11 µM [inhibitor, partial curve, poor fit].

With `CCOC(=O)C1Cn2c(nc3c(c2=O)C2(CCCC2)Cc2ccccc2-3)S1` (centres undefined) as the compound, how does the Potency read?
Its Potency is inconclusive: 20.6 µM [inhibitor, partial curve, poor fit].

For `S=c1[nH]nc(-c2ccccc2)n1/N=C/C=C/c1ccco1`, which Potency is on record?
Its Potency is “inactive”.

Which Potency does the source give for `COc1ccc(Nc2ccnc(Nc3ccc(OC)cc3)n2)cc1` here?
Its Potency is inconclusive: 29.1 µM [inhibitor, single point].

Which Potency does the source give for `Cc1ccc(S(=O)(=O)NCc2ccccc2)cc1C(=O)NC1CCC(C)CC1` (centres undefined) here?
The Potency was inconclusive: 2.06 µM [activator, partial curve].

For `CCC(=O)OC1(C)C(=O)C2=COC(c3ccc(OC)cc3)=CC2=C(Br)C1=O` (centres undefined), which Potency is on record?
Its Potency is inconclusive: 23.1 µM [activator, single point].

Which Potency does the source give for `CCOC(=O)/C(C#N)=C\c1cc(C)n(-c2ccccc2)c1C` here?
The Potency was inconclusive: 0.58 µM [activator, full curve].

For `COC(=O)Cn1nnc2c(cnn2-c2ccccc2)c1=O`, which Potency is on record?
The Potency was “inactive”.

With `CC(=O)N1CCN(c2nc(-c3ccco3)c3c(c2C#N)CC(C)(C)SC3)CC1` as the compound, how does the Potency read?
Its Potency is inconclusive: 14.6 µM [inhibitor, partial curve].

Which Potency does the source give for `Cc1cccc(N2CCN(C(=O)CSc3nnnn3C3CC3)CC2)c1C` here?
The Potency was inconclusive: 14.6 µM [inhibitor, single point].

For `CC1(C)C2CCC1(C)C(NCC(O)COc1ccc(C#N)cc1)C2` (centres undefined), which Potency is on record?
The Potency was “inactive”.

For `COc1ccc(C(=O)c2ccc([N+](=O)[O-])cc2Cl)cc1`, which Potency is on record?
Its Potency is “inactive”.

For `Cc1cc(Cl)nc(SCC(=O)c2ccccc2)n1`, which Potency is on record?
Its Potency is “inactive”.

With `Cc1sc2nc(CN(C(=O)c3cccs3)C3CCCC3)[nH]c(=O)c2c1C` as the compound, how does the Potency read?
Its Potency is inconclusive: 20.6 µM [inhibitor, partial curve, poor fit].

With `Cc1ccc(C)c(-n2c3nc(=O)[nH]c(=O)c-3cc3cc([N+](=O)[O-])ccc32)c1` as the compound, how does the Potency read?
Its Potency is “inactive”.
